In doi:10.1101/2024.07.17.603870:
These are yes or no findings as the source states them, for the method shown. Tags and fused reporters may be left off the sequences shown.

Assays:
Assay in all cases: two-hybrid
[1] = target: T1, ABSCISIC ACID … FIVE BINDING PROTEIN 4 (AFP4), BD fusion (Arabidopsis) (UniProt Q9S7Z2)
T1 sequence: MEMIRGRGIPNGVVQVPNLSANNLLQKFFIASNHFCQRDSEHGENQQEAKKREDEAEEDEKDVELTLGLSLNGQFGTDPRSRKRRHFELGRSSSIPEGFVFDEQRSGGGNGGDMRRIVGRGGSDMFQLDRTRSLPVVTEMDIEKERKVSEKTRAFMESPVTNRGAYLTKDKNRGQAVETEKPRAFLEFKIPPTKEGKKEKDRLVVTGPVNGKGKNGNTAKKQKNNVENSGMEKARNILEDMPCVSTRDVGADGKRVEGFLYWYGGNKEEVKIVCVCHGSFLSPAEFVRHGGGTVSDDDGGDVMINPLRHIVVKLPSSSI

[2] = target: T2, ABSCISIC ACID … FIVE BINDING PROTEIN 3 (AFP3), BD fusion (Arabidopsis) (UniProt Q94F39)
T2 sequence: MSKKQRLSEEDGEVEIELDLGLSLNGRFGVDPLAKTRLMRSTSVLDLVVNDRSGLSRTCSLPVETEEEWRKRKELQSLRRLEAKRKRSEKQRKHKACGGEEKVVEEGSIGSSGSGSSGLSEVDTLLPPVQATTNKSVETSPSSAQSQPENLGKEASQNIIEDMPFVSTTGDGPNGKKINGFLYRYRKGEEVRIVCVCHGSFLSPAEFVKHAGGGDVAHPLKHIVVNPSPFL

[3] = target: T3, ABSCISIC ACID … FIVE BINDING PROTEIN 2 (AFP2), BD fusion (Arabidopsis) (UniProt Q9LMX5)
T3 sequence: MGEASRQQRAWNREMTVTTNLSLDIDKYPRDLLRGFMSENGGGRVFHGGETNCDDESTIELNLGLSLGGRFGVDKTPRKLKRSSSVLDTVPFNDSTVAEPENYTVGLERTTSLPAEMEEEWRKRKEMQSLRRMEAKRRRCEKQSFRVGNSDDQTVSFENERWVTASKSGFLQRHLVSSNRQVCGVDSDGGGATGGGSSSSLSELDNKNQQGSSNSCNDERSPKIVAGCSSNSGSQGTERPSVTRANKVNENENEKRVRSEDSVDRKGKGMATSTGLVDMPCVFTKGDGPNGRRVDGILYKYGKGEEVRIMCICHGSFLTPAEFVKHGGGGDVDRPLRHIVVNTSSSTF

[4] = target: T4, ABSCISIC ACID … FIVE BINDING PROTEIN 1 (AFP1), BD fusion (Arabidopsis) (UniProt Q9LQ98)
T4 sequence: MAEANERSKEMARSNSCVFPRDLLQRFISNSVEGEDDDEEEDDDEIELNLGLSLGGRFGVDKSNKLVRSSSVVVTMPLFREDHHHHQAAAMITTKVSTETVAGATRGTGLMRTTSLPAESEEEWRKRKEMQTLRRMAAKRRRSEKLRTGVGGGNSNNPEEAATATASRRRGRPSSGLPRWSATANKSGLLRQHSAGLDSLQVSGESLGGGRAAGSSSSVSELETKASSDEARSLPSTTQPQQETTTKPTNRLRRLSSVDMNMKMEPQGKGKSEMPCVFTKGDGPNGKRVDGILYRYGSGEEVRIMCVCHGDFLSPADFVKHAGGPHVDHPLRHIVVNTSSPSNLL

Measured: binding

HAB1, two-hybrid fusion (Arabidopsis) (enzyme)
no binding: all assays above

HAI3, two-hybrid fusion (Arabidopsis) (enzyme)
no binding: all assays above
